Record: PubChem BioAssay AID1259274 (Sanger Institute, 2017)
Aim: 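Kinase knock-downs that cut colorectal cancer cell viability or boost drug killing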 (primary screen). System: human RKO colorectal cancer cells. Reagents: siRNA pool against human genes. Treatment: anchor drugs BYL719 at 1 µM, cetuximab at 5 µg/ml or trametinib at 10 nM; DMSO vehicle as the no-drug arm. Read-out: 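Viability of cells versus control pool 2 (non-targeting) averaged across replicates; knock-down-only robust z-score; for every anchor drug (BYL719, cetuximab, trametinib) a synergy score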. Scale: viability z-score, siRNA alone: higher = more viable cells; low values mean essential gene. Rule for the call: 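Essential when the robust viability z-score with siRNA only falls below -3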. Meaning of the calls: active = essential when knocked down alone; inactive = no change alone.
Here is a random part of 794 reagents tested. Of all reagents, 11 (1.4%) are marked active. 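Calls rest on knock-down without drug only; synergy scores with anchor drugs were not used for the essential call.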 Further read-outs or replicates are left out here. Not stated in the record: the amount of reagent, the time to read-out.

Against CDK5, the values are viability z-score, siRNA alone 0.0615; inactive.
Knock-down of GRK5 resulted in: viability z-score, siRNA alone 0.639; inactive.
Silencing of THNSL1 gave: viability z-score, siRNA alone 0.299; inactive.
PIP4K2C scored viability z-score, siRNA alone 0.41; inactive.
Against PTK7 the deposit lists viability z-score, siRNA alone -0.555; inactive.
Against SRC, the values are viability z-score, siRNA alone -0.663; inactive.
Against PBK, the values are viability z-score, siRNA alone 0.445; inactive.
Silencing of MAP4K3 gave: viability z-score, siRNA alone -0.0703; inactive.
Against PI4KB the deposit lists viability z-score, siRNA alone 1.19; inactive.
After knock-down of LIMK1, the screen gave viability z-score, siRNA alone 1.19; inactive.
After knock-down of FCSK, the record shows viability z-score, siRNA alone 0.395; inactive.
Silencing of CHD4 gave: viability z-score, siRNA alone -2.93; inactive.
After knock-down of EIF2AK4, the record shows viability z-score, siRNA alone -0.359; inactive.
MAPK9 scored viability z-score, siRNA alone -0.011; inactive.
FGFR4 gave viability z-score, siRNA alone 0.23; inactive.
With knock-down of ANKK1, the record shows viability z-score, siRNA alone 0.136; inactive.
With knock-down of PACSIN1 the results were viability z-score, siRNA alone -0.168; inactive.
Against PHKG2 the deposit lists viability z-score, siRNA alone 1.19; inactive.
After knock-down of RIPK3 the results were viability z-score, siRNA alone -0.413; inactive.
Depletion of PGK2 resulted in: viability z-score, siRNA alone -0.339; inactive.
Against CKB, the values are viability z-score, siRNA alone 0.916; inactive.
Against CAMK2D the deposit lists viability z-score, siRNA alone 0.145; inactive.
Against TRIB2 the deposit lists viability z-score, siRNA alone 1.12; inactive.
PLK2 gave viability z-score, siRNA alone 1.19; inactive.
PFKFB2 gave viability z-score, siRNA alone -0.29; inactive.
With knock-down of PFKP, the record shows viability z-score, siRNA alone 0.721; inactive.
Knock-down of EIF2AK3 gave: viability z-score, siRNA alone 0.434; inactive.
PRKACA gave viability z-score, siRNA alone 1.19; inactive.
Against DGKQ, the values are viability z-score, siRNA alone -3.06; active.
Against TESK1 the deposit lists viability z-score, siRNA alone 0.895; inactive.
BMPR1B scored viability z-score, siRNA alone 0.401; inactive.
PKIB scored viability z-score, siRNA alone 0.915; inactive.
For BPTF the deposit lists viability z-score, siRNA alone 1.19; inactive.
DGKD showed viability z-score, siRNA alone 0.948; inactive.
After knock-down of NEK5, the record shows viability z-score, siRNA alone 0.98; inactive.
STK24 showed viability z-score, siRNA alone -0.816; inactive.
